No constants are given. Whether binding was seen depends on the method and setting. Some results given as binding are weak or reduced against the parent protein; the word gives no strength.
How the values were obtained:
ROCK2 = ROCK2 (UniProt O75116); test: SPR (BiaCore)
[1] = molecular target: MBP-ROCK1 (ROCK1 catalytic domain linked to maltose binding protein) (UniProt Q13464); test: DFDNB cross-linking, trypsin digestion, MALDI-TOF-MS
[2] = molecular target: ROCK1 kinase catalytic domain (UniProt Q13464); test: STD-NMR

Chains of the proteins cited; added tags and fusions are not shown. Residues count along the entry.
UniProt O75116, residues 5-554: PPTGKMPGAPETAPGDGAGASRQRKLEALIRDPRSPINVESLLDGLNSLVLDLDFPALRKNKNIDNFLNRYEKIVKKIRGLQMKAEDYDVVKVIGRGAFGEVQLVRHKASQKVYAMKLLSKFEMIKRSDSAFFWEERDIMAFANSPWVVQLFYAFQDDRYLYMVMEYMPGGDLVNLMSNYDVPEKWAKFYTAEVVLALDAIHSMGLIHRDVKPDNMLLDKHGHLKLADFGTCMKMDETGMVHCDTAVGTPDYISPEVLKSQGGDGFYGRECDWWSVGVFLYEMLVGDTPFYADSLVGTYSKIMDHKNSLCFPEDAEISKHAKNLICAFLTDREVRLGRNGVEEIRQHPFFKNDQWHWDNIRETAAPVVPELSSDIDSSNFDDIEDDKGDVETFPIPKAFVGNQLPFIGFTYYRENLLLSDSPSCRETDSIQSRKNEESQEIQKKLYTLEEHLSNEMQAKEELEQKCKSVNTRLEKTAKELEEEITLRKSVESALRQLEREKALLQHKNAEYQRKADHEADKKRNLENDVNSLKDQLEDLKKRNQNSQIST
UniProt Q13464, residues 1-415: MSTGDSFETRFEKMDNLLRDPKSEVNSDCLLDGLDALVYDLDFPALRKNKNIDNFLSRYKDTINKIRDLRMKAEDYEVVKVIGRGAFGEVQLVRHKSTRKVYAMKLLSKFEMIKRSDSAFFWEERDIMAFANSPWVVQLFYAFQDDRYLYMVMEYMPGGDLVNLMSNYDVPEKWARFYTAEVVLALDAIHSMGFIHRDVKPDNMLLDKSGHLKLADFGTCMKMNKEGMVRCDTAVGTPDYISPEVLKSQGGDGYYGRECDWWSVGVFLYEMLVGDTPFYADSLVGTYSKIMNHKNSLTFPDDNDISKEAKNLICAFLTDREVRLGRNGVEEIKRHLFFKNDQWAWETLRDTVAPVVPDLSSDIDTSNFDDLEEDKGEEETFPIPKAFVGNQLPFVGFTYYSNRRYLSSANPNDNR

binding (ROCK2): binds | binding [1]: binds | binding [2]: binds
Binder: ERTYSPSTAVRS [peptide25 (…)]

Reference: US20170296617A1
